{"source": "patent US11633402B2", "about": "“RET inhibitor” (CHUGAI SEIYAKU KABUSHIKI KAISHA, priority 2012, dated 2023)", "origin": "cited, not measured here", "tested_on": "RET fusion gene-positive non-small cell lung cancer", "settings": "two patients with RET fusion gene-positive non-small cell lung cancer; Cancer Discov 3(6) 2013; cited from earlier work", "note": "For at least one compound, name, drawing or mass did not settle the structure.", "data": [{"smiles": "COc1cc2nccc(Oc3ccc(NC(=O)C4(C(=O)Nc5ccc(F)cc5)CC4)cc3)c2cc1OC", "note": "[cabozantinib]", "values": [{"measurement": "clinical response", "result": "partial response"}]}]}
